According to article doi:10.1101/2024.04.22.590536 (bioRxiv, 2024):
These are yes or no findings as the source states them, for the method shown. For some assays here: In cells and extracts the contact can be indirect. Some binding calls cover weakened binding; strength is not graded here. For some assays here: Where a sequence is shown, tags or fusion partners need not be part of it. Each block holds one binder with its values, some of them ahead of it.

By UniProt entry, the sequences of proteins in these tests, tags left out.
UniProt P20436: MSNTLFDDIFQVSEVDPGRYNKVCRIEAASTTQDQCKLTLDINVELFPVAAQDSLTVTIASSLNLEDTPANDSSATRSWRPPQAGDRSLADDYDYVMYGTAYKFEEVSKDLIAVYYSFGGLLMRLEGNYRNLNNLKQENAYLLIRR

Tests used:
[1] = target: T1, Utp22 fused to the GAL4 DNA binding domain (S. cerevisiae) (UniProt P53254); assay: two-hybrid
T1 sequence: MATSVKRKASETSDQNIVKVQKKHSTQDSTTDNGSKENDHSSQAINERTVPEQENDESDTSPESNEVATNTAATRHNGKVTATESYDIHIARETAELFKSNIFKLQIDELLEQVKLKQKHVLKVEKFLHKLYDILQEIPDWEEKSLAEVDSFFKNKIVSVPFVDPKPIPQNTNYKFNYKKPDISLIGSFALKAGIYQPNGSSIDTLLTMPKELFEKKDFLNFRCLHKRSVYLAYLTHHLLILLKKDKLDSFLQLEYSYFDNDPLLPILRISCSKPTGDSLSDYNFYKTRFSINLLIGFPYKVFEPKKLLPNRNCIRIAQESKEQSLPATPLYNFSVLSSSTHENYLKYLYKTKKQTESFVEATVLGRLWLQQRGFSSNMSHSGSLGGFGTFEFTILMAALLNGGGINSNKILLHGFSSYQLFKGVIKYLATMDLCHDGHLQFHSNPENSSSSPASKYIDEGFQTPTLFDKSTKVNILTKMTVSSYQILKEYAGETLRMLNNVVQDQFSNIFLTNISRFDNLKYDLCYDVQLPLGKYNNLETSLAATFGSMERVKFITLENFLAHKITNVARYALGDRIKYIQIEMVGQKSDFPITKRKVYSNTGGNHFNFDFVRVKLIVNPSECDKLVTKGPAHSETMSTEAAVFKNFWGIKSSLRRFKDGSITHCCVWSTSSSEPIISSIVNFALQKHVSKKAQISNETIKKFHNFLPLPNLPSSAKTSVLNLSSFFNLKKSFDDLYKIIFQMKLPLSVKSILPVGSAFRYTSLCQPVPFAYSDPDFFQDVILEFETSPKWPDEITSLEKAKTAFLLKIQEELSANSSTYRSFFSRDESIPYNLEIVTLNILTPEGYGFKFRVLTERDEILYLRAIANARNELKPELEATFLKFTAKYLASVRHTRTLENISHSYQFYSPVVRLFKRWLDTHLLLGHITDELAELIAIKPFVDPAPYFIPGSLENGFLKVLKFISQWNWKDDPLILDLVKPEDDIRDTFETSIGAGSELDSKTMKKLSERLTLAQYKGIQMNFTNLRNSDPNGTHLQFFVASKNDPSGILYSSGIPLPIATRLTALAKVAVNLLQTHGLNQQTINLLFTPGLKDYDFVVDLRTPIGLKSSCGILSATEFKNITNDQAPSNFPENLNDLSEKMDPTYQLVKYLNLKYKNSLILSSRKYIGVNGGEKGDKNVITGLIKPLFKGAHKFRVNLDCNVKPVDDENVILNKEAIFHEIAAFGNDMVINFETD

[2] = target: T2, Rrp7 fused to the GAL4 DNA binding domain (S. cerevisiae) (UniProt P25368); assay: two-hybrid
T2 sequence: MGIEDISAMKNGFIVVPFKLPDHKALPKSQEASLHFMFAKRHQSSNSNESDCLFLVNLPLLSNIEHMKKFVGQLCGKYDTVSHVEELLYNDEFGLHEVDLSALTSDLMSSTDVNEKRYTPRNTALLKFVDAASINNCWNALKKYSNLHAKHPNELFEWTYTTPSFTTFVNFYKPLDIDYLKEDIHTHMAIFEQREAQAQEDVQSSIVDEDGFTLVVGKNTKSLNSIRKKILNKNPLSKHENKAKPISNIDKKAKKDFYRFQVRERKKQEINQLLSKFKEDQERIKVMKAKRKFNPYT

[3] = target: T3, Ifh1 fused to the GAL4 DNA binding domain (S. cerevisiae) (UniProt P39520); assay: two-hybrid
T3 sequence: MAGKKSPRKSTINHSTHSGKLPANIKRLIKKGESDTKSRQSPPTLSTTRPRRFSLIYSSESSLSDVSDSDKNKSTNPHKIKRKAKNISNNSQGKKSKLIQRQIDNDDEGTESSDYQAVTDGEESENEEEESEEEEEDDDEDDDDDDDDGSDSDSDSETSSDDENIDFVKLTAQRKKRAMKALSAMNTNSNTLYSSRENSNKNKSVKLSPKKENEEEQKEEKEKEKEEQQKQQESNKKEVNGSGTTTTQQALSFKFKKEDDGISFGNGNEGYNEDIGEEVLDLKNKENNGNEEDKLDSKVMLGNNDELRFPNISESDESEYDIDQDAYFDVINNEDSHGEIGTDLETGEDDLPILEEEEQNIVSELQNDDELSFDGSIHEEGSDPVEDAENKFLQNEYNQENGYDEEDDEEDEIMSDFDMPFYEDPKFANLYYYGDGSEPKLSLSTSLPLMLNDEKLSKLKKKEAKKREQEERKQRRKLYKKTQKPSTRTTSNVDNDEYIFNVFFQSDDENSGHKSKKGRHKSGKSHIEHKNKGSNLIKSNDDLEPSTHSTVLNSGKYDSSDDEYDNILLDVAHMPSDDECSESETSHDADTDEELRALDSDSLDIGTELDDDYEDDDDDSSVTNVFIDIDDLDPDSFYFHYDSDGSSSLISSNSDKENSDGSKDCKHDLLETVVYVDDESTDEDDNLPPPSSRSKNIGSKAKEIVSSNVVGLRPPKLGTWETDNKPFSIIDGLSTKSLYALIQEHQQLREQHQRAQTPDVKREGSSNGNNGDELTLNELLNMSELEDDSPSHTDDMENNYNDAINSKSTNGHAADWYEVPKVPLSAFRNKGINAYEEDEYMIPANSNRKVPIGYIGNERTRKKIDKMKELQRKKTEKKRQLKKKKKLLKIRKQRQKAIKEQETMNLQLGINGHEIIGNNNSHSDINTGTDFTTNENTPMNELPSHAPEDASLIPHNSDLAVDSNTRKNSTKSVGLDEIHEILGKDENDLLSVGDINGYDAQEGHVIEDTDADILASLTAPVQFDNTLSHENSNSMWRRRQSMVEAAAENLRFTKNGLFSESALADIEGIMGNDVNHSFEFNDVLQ

[4] = target: T4, Ckb2 fused to the GAL4 DNA binding domain (S. cerevisiae) (UniProt P38930); assay: two-hybrid
T4 sequence: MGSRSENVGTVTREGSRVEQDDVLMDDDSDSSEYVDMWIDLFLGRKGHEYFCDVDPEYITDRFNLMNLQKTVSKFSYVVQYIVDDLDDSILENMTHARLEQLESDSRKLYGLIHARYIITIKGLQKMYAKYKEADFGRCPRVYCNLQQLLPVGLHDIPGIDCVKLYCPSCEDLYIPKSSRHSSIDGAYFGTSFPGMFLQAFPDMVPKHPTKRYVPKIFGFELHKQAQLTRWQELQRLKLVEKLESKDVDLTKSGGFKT

Nop7-TAP (S. cerevisiae) = target: T5, Nop7-TAP (S. cerevisiae) (UniProt P53261); assay: tandem affinity purification
T5 sequence: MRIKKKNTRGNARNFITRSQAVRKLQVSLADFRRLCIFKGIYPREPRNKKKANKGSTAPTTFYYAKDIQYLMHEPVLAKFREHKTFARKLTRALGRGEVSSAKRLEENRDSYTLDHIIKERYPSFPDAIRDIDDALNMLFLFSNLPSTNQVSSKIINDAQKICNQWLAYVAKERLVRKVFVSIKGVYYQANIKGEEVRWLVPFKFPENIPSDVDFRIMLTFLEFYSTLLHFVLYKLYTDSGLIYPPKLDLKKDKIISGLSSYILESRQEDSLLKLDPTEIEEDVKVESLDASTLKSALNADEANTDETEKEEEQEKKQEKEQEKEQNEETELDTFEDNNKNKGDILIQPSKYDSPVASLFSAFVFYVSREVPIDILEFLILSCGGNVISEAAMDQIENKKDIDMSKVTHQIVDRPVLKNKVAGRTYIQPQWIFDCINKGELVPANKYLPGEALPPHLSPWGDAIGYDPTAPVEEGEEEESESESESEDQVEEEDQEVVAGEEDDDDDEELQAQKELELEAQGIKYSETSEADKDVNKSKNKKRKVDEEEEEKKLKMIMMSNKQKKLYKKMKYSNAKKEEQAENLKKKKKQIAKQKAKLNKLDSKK

Rpb8-TAP (S. cerevisiae) = Rpb8-TAP (S. cerevisiae) (UniProt P20436); assay: tandem affinity purification
Noc4-TAP (S. cerevisiae) = target: T6, Noc4-TAP (S. cerevisiae) (UniProt Q06512); assay: tandem affinity purification
T6 sequence: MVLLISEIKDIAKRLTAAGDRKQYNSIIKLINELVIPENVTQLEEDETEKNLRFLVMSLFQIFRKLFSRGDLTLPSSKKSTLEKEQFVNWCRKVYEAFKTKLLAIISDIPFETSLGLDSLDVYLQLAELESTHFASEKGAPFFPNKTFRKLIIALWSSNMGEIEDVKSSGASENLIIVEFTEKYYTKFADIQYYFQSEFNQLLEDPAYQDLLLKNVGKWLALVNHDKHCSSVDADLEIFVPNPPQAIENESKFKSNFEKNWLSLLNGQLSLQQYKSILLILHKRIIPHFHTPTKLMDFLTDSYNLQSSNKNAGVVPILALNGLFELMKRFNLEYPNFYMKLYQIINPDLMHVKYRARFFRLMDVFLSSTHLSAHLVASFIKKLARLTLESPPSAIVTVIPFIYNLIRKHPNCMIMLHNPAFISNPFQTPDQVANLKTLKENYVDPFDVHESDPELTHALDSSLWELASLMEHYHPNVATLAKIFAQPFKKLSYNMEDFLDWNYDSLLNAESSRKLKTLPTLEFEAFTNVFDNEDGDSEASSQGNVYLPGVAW

Rrp7-Vn (S. cerevisiae) = target: T7, Rrp7-Vn (S. cerevisiae) (UniProt P25368); assay: split reporter
T7 sequence: T2 sequence

binding [1]: binds
binding [2]: binds
binding [3]: binds
binding [4]: binds
B1: Stm1Δ176-225 fused to the GAL4 activation domain (protein, UniProt P39015)
chain: MSNPFDLLGNDVEDADVVVLPPKEIVKSNTSSKKADVPPPSADPSKARKNRPRPSGNEGAIRDKTAGRRNNRSKDVTDSATTKKSNTRRATDRHSRTGKTDTKKKVNQGWGDDKKELSAEKEAQADAAAEIAEDAAEAEDAGKPKTAQLSLQDYLNQQANNQFNKVPEAKKVELDNNNSRNNFNNRRGGRGARKGNNTANATNSANTVQKNRNIDVSNLPSLA

binding (Nop7-TAP (S. cerevisiae)): binds
binding (Rpb8-TAP (S. cerevisiae)): no binding
binding (Noc4-TAP (S. cerevisiae)): binds
B2: untagged, endogenous Stm1 (protein, UniProt P39015 1-273)
chain: MSNPFDLLGNDVEDADVVVLPPKEIVKSNTSSKKADVPPPSADPSKARKNRPRPSGNEGAIRDKTAGRRNNRSKDVTDSATTKKSNTRRATDRHSRTGKTDTKKKVNQGWGDDKKELSAEKEAQADAAAEIAEDAAEAEDAGKPKTAQLSLQDYLNQQANNQFNKVPEAKKVELDAERIETAEKEAYVPATKVKNVKSKQLKTKEYLEFDATFVESNTRKNFGDRNNNSRNNFNNRRGGRGARKGNNTANATNSANTVQKNRNIDVSNLPSLA

binding (Rrp7-Vn (S. cerevisiae)): binds
B3: Vc-Stm1 (protein, UniProt P39015 1-273)
chain: B2 chain
